Values from PubChem BioAssay AID1224830 (NIAID, 2016)
In all, the deposit lists about 18,000 reagents; shown is a random part of them. About 2,900 of them (16%) count as active. 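Calls are made per well; low scores hint the gene aids the LPS response, high scores that it dampens it.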 Repeated entries: four replicate wells of each siRNA pool.

Purpose: 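Regulators of TLR4 signalling towards TNF-alpha in macrophage-like cells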 (primary screen)
System: human THP-1 monocytic leukaemia cells, TNF dual-luciferase reporter clone, PMA-differentiated to macrophage-like cells
Knock-down reagent: siRNA pool against human genes, 50 nM
Time to read-out: LPS for 4 h, given about 3 days after siRNA transfection
Challenge: bacterial LPS (TLR4 ligand), 10 ng/ml
Read-out: 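Ratio of firefly to renilla light, scaled to the plate median and expressed as a robust z-score per replicate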
Scale: TNF reporter robust z-score: higher = stronger TNF reporter response to LPS
Hit rule: 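Each well counts as active if its z-score is over 2.8 or under -1.5; controls are left without a call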

| Target gene | TNF reporter robust z-score | outcome |
| --- | --- | --- |
| ROR2 (ROR family WNT receptor 2) | -1.62 | active |
| ROR2 (ROR family WNT receptor 2) | -0.62 | inactive |
| ROR2 (ROR family WNT receptor 2) | 0.66 | inactive |
| ROR2 (ROR family WNT receptor 2) | -0.05 | inactive |
| KLHL4 (kelch like family member 4) | -0.55 | inactive |
| KLHL4 (kelch like family member 4) | -1.29 | inactive |
| KLHL4 (kelch like family member 4) | -0.26 | inactive |
| KLHL4 (kelch like family member 4) | 0.36 | inactive |
| SCTR (secretin receptor) | 3.13 | active |
| SCTR (secretin receptor) | 2.07 | inactive |
| SCTR (secretin receptor) | 1.77 | inactive |
| SCTR (secretin receptor) | -0.8 | inactive |
| ACTL6B (actin like 6B) | -0.67 | inactive |
| ACTL6B (actin like 6B) | 0.33 | inactive |
| ACTL6B (actin like 6B) | -0.18 | inactive |
| ACTL6B (actin like 6B) | -0.45 | inactive |
| TYMP (thymidine phosphorylase) | -0.54 | inactive |
| TYMP (thymidine phosphorylase) | -0.63 | inactive |
| TYMP (thymidine phosphorylase) | -0.9 | inactive |
| TYMP (thymidine phosphorylase) | -0.31 | inactive |
| TAF2 (TATA-box binding protein associated factor 2) | -0.41 | inactive |
| TAF2 (TATA-box binding protein associated factor 2) | -0.45 | inactive |
| TAF2 (TATA-box binding protein associated factor 2) | -0.26 | inactive |
| TAF2 (TATA-box binding protein associated factor 2) | -0.21 | inactive |
| BRWD3 (bromodomain and WD repeat domain containing 3) | -0.42 | inactive |
| BRWD3 (bromodomain and WD repeat domain containing 3) | 0.33 | inactive |
| BRWD3 (bromodomain and WD repeat domain containing 3) | 0.51 | inactive |
| BRWD3 (bromodomain and WD repeat domain containing 3) | 0.7 | inactive |

Sorted by “TNF reporter robust z-score” (low to high): some entries from above.
| Target gene | TNF reporter robust z-score | outcome |
| --- | --- | --- |
| TYMP (thymidine phosphorylase) | -0.9 | inactive |
| TAF2 (TATA-box binding protein associated factor 2) | -0.45 | inactive |
| TAF2 (TATA-box binding protein associated factor 2) | -0.41 | inactive |
| TYMP (thymidine phosphorylase) | -0.31 | inactive |

Next results follow:
| Target gene | TNF reporter robust z-score | outcome |
| --- | --- | --- |
| ASPNAT (aspartate N-acetyltransferase) | 0.15 | inactive |
| ASPNAT (aspartate N-acetyltransferase) | 0.31 | inactive |
| ASPNAT (aspartate N-acetyltransferase) | 0.01 | inactive |
| ASPNAT (aspartate N-acetyltransferase) | 0.14 | inactive |
| DCK (deoxycytidine kinase) | -1.21 | inactive |
| DCK (deoxycytidine kinase) | -1.06 | inactive |
| DCK (deoxycytidine kinase) | -0.86 | inactive |
| DCK (deoxycytidine kinase) | -1.04 | inactive |
| ZNF83 (zinc finger protein 83) | 0.65 | inactive |
| ZNF83 (zinc finger protein 83) | 0 | inactive |
| ZNF83 (zinc finger protein 83) | 0.34 | inactive |
| ZNF83 (zinc finger protein 83) | 1.37 | inactive |
| PITPNM1 (phosphatidylinositol transfer protein membrane associated 1) | 0.45 | inactive |
| PITPNM1 (phosphatidylinositol transfer protein membrane associated 1) | 0.89 | inactive |
| PITPNM1 (phosphatidylinositol transfer protein membrane associated 1) | 0.51 | inactive |
| PITPNM1 (phosphatidylinositol transfer protein membrane associated 1) | 3.83 | active |
| TMEM183A (transmembrane protein 183A) | 1.43 | inactive |
| TMEM183A (transmembrane protein 183A) | 1.46 | inactive |
| TMEM183A (transmembrane protein 183A) | 0.31 | inactive |
| TMEM183A (transmembrane protein 183A) | 0.75 | inactive |
